# In the supplement of paper PMC6411743:
# Sequences of proteins named here, by UniProt entry; tags and fusion partners are left off. A change or cut given only in a name is not applied to a line headed by its entry.
# UniProt P19532: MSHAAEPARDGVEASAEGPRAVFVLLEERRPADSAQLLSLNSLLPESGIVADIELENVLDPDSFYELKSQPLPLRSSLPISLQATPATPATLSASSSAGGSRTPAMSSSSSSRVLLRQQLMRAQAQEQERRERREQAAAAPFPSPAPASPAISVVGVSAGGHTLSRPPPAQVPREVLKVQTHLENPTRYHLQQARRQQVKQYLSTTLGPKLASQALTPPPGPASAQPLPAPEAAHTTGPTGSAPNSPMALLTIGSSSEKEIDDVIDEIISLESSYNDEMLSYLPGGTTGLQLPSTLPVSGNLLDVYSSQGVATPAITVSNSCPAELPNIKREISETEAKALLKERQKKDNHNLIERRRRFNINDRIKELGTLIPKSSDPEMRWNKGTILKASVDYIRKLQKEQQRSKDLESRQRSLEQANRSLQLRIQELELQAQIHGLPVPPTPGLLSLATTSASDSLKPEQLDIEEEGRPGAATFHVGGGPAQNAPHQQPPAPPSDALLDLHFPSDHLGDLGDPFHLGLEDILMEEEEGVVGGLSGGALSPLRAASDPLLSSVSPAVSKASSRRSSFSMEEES
# UniProt P20339: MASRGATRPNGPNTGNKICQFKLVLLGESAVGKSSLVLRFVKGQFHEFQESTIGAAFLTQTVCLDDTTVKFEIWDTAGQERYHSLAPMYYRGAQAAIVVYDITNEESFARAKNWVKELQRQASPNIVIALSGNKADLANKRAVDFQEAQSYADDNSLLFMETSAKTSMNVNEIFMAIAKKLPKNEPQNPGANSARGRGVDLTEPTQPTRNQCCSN
# UniProt P32519: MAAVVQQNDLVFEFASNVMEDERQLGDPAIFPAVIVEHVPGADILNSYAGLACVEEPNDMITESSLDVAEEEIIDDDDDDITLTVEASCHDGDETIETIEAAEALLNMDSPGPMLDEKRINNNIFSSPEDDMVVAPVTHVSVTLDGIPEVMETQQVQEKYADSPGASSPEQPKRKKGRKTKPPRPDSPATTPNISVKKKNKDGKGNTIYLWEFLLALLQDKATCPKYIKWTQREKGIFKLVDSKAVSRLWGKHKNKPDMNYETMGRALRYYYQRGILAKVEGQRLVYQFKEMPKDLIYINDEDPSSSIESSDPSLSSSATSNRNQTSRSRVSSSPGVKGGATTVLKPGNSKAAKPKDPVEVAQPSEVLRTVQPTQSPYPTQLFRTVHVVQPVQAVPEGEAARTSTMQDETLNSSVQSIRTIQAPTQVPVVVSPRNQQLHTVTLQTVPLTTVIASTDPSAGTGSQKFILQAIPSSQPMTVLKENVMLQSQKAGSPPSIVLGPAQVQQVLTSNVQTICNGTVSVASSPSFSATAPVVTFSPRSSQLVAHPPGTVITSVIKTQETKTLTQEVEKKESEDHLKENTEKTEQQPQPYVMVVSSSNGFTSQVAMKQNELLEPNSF
# UniProt P27986, whole entry: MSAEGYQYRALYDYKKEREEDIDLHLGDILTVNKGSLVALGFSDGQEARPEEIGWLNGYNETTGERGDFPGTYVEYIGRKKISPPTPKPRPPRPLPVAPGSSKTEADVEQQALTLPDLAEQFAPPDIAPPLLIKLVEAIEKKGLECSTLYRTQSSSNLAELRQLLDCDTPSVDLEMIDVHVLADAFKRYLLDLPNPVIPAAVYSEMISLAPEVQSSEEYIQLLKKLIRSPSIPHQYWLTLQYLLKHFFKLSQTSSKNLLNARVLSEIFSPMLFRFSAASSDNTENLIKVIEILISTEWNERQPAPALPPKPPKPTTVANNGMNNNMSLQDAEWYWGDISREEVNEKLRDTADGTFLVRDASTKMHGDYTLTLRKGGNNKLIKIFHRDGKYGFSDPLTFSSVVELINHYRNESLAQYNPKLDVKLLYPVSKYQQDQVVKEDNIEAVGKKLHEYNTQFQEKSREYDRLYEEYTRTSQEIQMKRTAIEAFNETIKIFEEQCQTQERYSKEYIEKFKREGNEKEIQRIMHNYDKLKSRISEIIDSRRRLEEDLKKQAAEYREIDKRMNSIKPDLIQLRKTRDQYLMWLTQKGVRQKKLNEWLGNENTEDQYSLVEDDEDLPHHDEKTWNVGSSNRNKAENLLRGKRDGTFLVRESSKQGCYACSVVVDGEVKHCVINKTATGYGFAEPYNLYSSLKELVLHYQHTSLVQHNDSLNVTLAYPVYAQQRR
# UniProt P18433: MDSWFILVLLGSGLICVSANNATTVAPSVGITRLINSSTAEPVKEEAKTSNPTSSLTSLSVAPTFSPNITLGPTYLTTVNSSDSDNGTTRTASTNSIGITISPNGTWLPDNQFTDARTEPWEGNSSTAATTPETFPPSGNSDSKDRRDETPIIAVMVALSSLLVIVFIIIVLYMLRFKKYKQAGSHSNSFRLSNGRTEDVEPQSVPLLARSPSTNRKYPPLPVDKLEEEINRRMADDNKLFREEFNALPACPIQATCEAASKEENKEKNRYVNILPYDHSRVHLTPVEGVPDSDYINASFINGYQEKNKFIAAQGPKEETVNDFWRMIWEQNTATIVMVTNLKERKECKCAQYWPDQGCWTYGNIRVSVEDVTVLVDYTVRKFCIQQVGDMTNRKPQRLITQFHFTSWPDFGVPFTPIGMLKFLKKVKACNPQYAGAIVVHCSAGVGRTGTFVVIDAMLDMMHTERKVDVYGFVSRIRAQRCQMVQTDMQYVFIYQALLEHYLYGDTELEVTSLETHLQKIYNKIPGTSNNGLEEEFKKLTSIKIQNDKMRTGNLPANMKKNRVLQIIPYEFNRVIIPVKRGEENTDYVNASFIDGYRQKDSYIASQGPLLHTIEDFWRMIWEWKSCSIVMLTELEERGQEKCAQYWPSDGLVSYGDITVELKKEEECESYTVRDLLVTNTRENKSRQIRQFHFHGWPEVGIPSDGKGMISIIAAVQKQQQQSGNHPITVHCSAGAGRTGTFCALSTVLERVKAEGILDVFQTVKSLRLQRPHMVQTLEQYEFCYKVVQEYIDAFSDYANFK
# UniProt P33981: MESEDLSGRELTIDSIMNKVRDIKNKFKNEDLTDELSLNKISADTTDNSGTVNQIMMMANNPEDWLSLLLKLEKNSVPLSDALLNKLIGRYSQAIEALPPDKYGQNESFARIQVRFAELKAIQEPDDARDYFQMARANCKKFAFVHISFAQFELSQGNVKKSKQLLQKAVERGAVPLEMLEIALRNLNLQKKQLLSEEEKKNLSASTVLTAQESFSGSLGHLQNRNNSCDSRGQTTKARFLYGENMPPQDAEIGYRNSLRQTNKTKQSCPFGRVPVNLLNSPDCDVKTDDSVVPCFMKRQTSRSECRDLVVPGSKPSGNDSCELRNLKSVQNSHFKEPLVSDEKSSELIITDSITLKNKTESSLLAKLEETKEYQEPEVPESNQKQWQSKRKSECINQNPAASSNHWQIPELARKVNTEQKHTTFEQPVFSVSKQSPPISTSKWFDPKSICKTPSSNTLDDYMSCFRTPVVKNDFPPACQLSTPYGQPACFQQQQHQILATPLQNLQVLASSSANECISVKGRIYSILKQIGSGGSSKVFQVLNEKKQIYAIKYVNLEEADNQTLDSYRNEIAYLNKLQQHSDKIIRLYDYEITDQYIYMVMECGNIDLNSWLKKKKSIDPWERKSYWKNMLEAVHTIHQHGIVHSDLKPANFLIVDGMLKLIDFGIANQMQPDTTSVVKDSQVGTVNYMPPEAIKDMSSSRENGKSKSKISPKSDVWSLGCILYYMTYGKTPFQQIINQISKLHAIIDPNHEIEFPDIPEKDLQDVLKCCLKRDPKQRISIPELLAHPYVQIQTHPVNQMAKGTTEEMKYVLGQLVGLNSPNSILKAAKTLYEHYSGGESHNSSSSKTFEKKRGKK
# UniProt P30154, whole entry: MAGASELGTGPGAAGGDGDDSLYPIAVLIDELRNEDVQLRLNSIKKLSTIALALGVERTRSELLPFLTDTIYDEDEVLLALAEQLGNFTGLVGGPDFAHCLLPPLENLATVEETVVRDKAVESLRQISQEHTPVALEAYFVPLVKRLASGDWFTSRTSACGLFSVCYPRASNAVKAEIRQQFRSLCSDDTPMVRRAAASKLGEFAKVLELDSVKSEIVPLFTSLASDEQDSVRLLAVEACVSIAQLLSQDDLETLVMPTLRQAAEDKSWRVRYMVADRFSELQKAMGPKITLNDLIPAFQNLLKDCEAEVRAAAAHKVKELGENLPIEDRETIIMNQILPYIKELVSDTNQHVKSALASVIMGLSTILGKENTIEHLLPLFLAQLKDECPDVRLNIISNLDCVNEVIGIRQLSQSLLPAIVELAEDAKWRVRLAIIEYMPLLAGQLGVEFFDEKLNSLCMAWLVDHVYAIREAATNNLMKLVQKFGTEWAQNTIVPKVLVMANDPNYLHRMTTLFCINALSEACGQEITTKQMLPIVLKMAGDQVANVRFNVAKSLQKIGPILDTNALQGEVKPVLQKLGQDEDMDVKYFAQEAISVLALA
# UniProt P17050: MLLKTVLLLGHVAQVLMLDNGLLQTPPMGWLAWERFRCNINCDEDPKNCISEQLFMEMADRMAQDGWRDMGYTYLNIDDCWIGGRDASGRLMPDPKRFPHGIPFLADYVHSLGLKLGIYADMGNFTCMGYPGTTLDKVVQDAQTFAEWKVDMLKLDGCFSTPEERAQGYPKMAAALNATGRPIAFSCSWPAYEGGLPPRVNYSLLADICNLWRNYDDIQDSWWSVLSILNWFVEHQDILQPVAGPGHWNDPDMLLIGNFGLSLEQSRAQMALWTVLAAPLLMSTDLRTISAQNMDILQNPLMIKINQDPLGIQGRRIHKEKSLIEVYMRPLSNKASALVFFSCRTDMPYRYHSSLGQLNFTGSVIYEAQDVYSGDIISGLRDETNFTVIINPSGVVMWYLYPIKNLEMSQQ
# UniProt P20645: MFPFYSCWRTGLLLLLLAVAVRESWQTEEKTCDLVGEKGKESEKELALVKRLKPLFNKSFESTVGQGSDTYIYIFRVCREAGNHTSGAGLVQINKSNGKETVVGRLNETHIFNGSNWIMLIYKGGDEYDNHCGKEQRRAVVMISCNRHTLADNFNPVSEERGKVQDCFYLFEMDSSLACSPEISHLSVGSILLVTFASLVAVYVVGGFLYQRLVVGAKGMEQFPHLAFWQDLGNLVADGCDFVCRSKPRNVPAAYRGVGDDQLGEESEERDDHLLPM
# UniProt P35914: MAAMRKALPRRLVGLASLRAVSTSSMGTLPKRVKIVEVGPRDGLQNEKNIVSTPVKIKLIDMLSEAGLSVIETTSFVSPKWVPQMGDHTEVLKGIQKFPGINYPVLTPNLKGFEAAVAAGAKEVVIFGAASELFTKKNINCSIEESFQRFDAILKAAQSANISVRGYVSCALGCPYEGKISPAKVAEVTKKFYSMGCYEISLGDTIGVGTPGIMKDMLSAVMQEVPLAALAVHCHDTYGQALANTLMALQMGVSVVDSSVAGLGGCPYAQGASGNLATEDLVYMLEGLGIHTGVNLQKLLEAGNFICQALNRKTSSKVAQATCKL
# UniProt P29353: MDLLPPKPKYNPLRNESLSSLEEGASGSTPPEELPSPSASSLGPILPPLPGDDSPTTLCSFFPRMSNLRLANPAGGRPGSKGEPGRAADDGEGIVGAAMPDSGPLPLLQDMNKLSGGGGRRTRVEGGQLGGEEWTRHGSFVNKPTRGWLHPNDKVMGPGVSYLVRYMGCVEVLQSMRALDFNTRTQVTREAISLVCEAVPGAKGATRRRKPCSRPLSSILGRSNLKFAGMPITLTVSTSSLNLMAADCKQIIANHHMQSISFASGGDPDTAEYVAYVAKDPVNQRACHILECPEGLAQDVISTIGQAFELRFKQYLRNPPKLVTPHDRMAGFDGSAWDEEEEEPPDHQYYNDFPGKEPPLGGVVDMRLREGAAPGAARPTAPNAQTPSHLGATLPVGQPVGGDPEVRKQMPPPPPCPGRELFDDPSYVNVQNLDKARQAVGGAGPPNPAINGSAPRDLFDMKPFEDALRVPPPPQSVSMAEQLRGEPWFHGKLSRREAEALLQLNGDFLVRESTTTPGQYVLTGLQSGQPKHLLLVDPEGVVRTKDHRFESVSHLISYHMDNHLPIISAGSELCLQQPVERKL
# UniProt P30041: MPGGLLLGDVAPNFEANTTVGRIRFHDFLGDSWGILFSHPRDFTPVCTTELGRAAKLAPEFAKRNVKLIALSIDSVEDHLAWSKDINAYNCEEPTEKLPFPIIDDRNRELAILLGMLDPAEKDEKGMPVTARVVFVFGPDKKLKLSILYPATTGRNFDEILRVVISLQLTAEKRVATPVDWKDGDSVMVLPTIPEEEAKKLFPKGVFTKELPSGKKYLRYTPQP
# UniProt P22087: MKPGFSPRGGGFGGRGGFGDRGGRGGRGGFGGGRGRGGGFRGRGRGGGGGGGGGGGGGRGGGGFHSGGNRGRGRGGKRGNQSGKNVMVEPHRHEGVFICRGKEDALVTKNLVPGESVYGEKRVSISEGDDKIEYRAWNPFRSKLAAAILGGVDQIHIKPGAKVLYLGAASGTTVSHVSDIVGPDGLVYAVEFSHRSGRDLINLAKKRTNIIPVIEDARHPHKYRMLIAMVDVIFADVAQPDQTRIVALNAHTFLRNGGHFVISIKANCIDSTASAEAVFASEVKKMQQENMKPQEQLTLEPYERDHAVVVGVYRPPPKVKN
# ± gives the standard deviation of the averaged measurements. The list shows a part of the results, in another mix than the full data.
# Compound: Nc1ncnc2c1ncn2[C@@H]1O[C@H](COP(=O)(O)OP(=O)(O)NP(=O)(O)O)[C@@H](O)[C@H]1O [adenylyl imidodiphosphate]
# Experiment: NP40-soluble protein abundance relative to vehicle (solubility fold change) (ratio); higher = more soluble protein in presence of AMP-PNP
# Summary of the method: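 Jurkat crude lysate prepared with a Dounce homogeniser was treated at eight concentrations spanning 0.1 to 10 mM, 10 min at room temperature then 3 min at 37 °C. Solubilisation with 0.8% NP40 and benzonase and ultracentrifugation preceded TMT labelling of the supernatant for LC-MS/MS. Fold change against the detergent-processed vehicle was determined per replicate from vsn-normalised intensities, across three independent experiments.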
Target,NP40-soluble protein abundance (concentration: 1mM),NP40-soluble protein abundance (concentration: 2mM),NP40-soluble protein abundance (concentration: 4mM),NP40-soluble protein abundance (concentration: 6mM),NP40-soluble protein abundance (concentration: 8mM),NP40-soluble protein abundance (concentration: 10mM)
UniProt P25054 and related entries,0.982 ± 0.042,1.04 ± 0.029,1.01 ± 0.055,1 ± 0.044,0.994 ± 0.05,1.01 ± 0.022
TFE3 (UniProt P19532),1.05 ± 0.048,1.05 ± 0.064,1.03 ± 0.021,1.05 ± 0.09,1.03 ± 0.039,1.05 ± 0.035
UniProt P20339 and related entries,0.999 ± 0.025,0.972 ± 0.048,1 ± 0.019,1.05 ± 0.081,1.07 ± 0.074,1.06 ± 0.05
UniProt P32519 and related entries,0.996 ± 0.0076,1.04 ± 0.021,1.001 ± 0.0087,0.991 ± 0.029,0.932 ± 0.013,0.994 ± 0.038
SPR (UniProt P35270),1.02 ± 0.015,1.07 ± 0.063,1.02 ± 0.03,0.985 ± 0.01,0.981 ± 0.019,1.01 ± 0.021
PIK3R1 (UniProt P27986),1.03 ± 0.023,1.01 ± 0.027,1.03 ± 0.046,0.955 ± 0.021,0.966 ± 0.013,0.952 ± 0.015
UniProt P26368 and related entries,0.986 ± 0.075,1 ± 0.025,1.11 ± 0.069,1.24 ± 0.098,1.41 ± 0.09,1.51 ± 0.12
UniProt P30049,0.97 ± 0.052,0.965 ± 0.022,0.912 ± 0.058,0.907 ± 0.047,0.895 ± 0.048,0.864 ± 0.049
AGA (UniProt P20933),1.01 ± 0.04,1.05 ± 0.073,1.06 ± 0.022,1.04 ± 0.011,1.03 ± 0.041,1.02 ± 0.033
UniProt P18433 and related entries,1.029 ± 0.0089,1.03 ± 0.027,1.03 ± 0.032,0.987 ± 0.023,1.02 ± 0.018,1.03 ± 0.036
UniProt P33981 and related entries,1.04 ± 0.027,1.021 ± 0.0069,1.05 ± 0.033,1.018 ± 0.01,1.02 ± 0.034,1.03 ± 0.036
UniProt P23443 and related entries,1.01 ± 0.037,1.04 ± 0.05,0.99 ± 0.039,1 ± 0.0034,0.9531 ± 0.0055,1.01 ± 0.03
SOAT1 (UniProt P35610),0.992 ± 0.049,0.956 ± 0.13,0.948 ± 0.075,0.912 ± 0.027,0.918 ± 0.033,0.902 ± 0.038
UniProt P30154 and related entries,0.98 ± 0.029,0.992 ± 0.045,0.969 ± 0.046,0.942 ± 0.029,0.907 ± 0.022,0.956 ± 0.029
UniProt P23771 and related entries,0.959 ± 0.029,0.99 ± 0.043,0.9254 ± 0.0013,0.895 ± 0.0095,0.908 ± 0.012,0.908 ± 0.022
RFC4 (UniProt P35249),1.05 ± 0.051,1.08 ± 0.014,1.09 ± 0.06,1.14 ± 0.043,1.16 ± 0.082,1.2 ± 0.075
JAK1 (UniProt P23458),1.18 ± 0.08,1.16 ± 0.11,1.16 ± 0.14,1.11 ± 0.04,1.12 ± 0.084,1.09 ± 0.081
RAB4A (UniProt P20338),1 ± 0.024,0.997 ± 0.034,0.989 ± 0.028,1.02 ± 0.034,1.021 ± 0.0099,1.02 ± 0.025
NAGA (UniProt P17050),1 ± 0.056,1.02 ± 0.059,1.03 ± 0.052,0.985 ± 0.027,0.976 ± 0.038,0.993 ± 0.068
M6PR (UniProt P20645),1 ± 0.027,1.06 ± 0.14,0.978 ± 0.055,1.07 ± 0.047,1.02 ± 0.036,1.03 ± 0.06
MCM4 (UniProt P33991),0.975 ± 0.036,0.925 ± 0.054,0.943 ± 0.049,0.942 ± 0.043,0.96 ± 0.052,0.933 ± 0.088
PSMA4 (UniProt P25789),0.895 ± 0.042,0.868 ± 0.046,0.871 ± 0.094,0.989 ± 0.085,1 ± 0.083,1 ± 0.15
HMGCL (UniProt P35914),0.963 ± 0.013,1 ± 0.047,0.966 ± 0.029,0.97571 ± 0.00013,0.964 ± 0.03,0.983 ± 0.017
ATP6V1E1 (UniProt P36543),0.969 ± 0.031,0.968 ± 0.018,0.921 ± 0.026,0.935 ± 0.025,0.925 ± 0.025,0.905 ± 0.048
UniProt P17252,1.05 ± 0.022,1.05 ± 0.053,1.02 ± 0.079,1.04 ± 0.032,1.03 ± 0.071,1.04 ± 0.11
UniProt P29353 and related entries,1.02 ± 0.044,1.02 ± 0.022,1.01 ± 0.035,1.01 ± 0.065,0.997 ± 0.056,1 ± 0.059
UniProt P22307 and related entries,0.989 ± 0.03,1.01 ± 0.034,0.982 ± 0.025,1.02 ± 0.058,1.03 ± 0.049,1.01 ± 0.072
PRDX6 (UniProt P30041),0.948 ± 0.036,0.91 ± 0.038,0.906 ± 0.015,0.924 ± 0.035,0.948 ± 0.0015,0.87 ± 0.051
UniProt P32189 and related entries,0.995 ± 0.015,0.988 ± 0.019,0.993 ± 0.02,0.998 ± 0.039,1 ± 0.018,0.984 ± 0.043
FBL (UniProt P22087),1.02 ± 0.046,1.027 ± 0.003,1.1 ± 0.051,1.22 ± 0.092,1.37 ± 0.12,1.48 ± 0.25

# An excerpt of these results, bar-delimited:
Target | NP40-soluble protein abundance (concentration: 1mM) | NP40-soluble protein abundance (concentration: 2mM) | NP40-soluble protein abundance (concentration: 4mM) | NP40-soluble protein abundance (concentration: 6mM) | NP40-soluble protein abundance (concentration: 8mM) | NP40-soluble protein abundance (concentration: 10mM)
UniProt P32189 and related entries | 0.995 ± 0.015 | 0.988 ± 0.019 | 0.993 ± 0.02 | 0.998 ± 0.039 | 1 ± 0.018 | 0.984 ± 0.043
FBL (UniProt P22087) | 1.02 ± 0.046 | 1.027 ± 0.003 | 1.1 ± 0.051 | 1.22 ± 0.092 | 1.37 ± 0.12 | 1.48 ± 0.25
